The target of test [1] is T1, Annexin A4 (human (endogenous in RMG-1 and ES-2)), P09525.
T1 chain: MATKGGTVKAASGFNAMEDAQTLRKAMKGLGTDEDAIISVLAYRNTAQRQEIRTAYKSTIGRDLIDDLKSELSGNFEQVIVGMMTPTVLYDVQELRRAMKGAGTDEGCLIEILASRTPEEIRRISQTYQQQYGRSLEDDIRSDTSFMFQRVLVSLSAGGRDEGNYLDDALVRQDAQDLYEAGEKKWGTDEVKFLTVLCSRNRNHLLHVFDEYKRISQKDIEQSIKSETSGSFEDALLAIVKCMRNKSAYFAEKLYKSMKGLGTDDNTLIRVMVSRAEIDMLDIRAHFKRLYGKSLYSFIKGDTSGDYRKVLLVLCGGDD
The test is described as follows: co-IP; lysates of RMG-1 and ES-2 cells; ANXA4 precipitated with rabbit anti-human ANXA4 and NF-kB p50 detected with mouse anti-human NF-kB p50, and the reverse (NF-kB p50 precipitated, ANXA4 detected); rabbit IgG as negative control; also ES-2-FUT1 and ES-2-A4-O stable transfectants compared with ES-2 (IP of ANXA4). Conditions: remark: other sources report otherwise.

The target of test [2] is T2, ANXA4 in ES-2-A4-O cells (ES-2 cells transfected with ANXA4 gene), P09525.
T2 chain: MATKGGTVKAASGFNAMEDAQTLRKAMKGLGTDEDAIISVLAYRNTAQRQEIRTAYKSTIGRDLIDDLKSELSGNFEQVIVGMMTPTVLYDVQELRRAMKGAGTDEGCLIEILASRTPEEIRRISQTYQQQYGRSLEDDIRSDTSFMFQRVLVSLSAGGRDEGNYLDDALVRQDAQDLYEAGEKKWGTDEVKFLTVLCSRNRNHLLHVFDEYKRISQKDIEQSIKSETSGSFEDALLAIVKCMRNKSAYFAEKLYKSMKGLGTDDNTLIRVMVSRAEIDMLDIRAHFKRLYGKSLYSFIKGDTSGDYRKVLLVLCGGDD
The description is as above. Conditions: remark: other sources report otherwise.

These are yes or no findings as the source states them, for the method shown. In cells and extracts the contact can be indirect. Some binding calls cover weakened binding; strength is not graded here.

B1: NF-kB p50, P19838 1-433 (protein)
chain: MAEDDPYLGRPEQMFHLDPSLTHTIFNPEVFQPQMALPTDGPYLQILEQPKQRGFRFRYVCEGPSHGGLPGASSEKNKKSYPQVKICNYVGPAKVIVQLVTNGKNIHLHAHSLVGKHCEDGICTVTAGPKDMVVGFANLGILHVTKKKVFETLEARMTEACIRGYNPGLLVHPDLAYLQAEGGGDRQLGDREKELIRQAALQQTKEMDLSVVRLMFTAFLPDSTGSFTRRLEPVVSDAIYDSKAPNASNLKIVRMDRTAGCVTGGEEIYLLCDKVQKDDIQIRFYEEEENGGVWEGFGDFSPTDVHRQFAIVFKTPKYKDINITKPASVFVQLRRKSDLETSEPKPFLYYPEIKDKEEVQRKRQKLMPNFSDSFGGGSGAGAGGGGMFGSGGGGGGTGSTGPGYSFPHYGFPTYGGITFHPGTTKSNAGMKHG
modifications: here or on the partner: Lewis y antigen (fucosylated oligosaccharide) on ANXA4, site not stated
Consider B1, for which the binding entry in test [1] and in test [2] was “binds” each time.
